Assay results taken from PMC6850780.
Read-outs that look alike come from different tables or passages of the source. These are yes or no findings as the source states them, for the method shown. In cells and extracts the contact can be indirect. Some binding calls cover weakened binding; strength is not graded here.

Chains of the proteins cited; added tags and fusions are not shown. Lines headed by an entry give the natural chain unless they say otherwise; changes in a name come on top.
UniProt P62330: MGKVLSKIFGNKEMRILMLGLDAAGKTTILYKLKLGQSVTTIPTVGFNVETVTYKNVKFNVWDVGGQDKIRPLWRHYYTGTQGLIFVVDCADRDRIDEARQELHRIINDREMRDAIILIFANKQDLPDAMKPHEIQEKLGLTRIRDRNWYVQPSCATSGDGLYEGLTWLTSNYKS
UniProt P62331: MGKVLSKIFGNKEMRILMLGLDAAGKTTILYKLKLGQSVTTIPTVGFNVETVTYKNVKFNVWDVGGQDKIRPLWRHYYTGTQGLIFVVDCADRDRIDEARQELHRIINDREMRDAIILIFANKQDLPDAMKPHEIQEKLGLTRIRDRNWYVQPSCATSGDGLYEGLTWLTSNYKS

Key:
[1] = target: ARF6 (WT)-CFP, ADP-ribosylation factor 6 wild type fused to cyan fluorescent protein (UniProt P62330); experiment: co-IP; NG108 cells co-transfected with Halo-tagged Sig-1R constructs and ARF6-CFP constructs; lysis in 50 mM Tris pH 7.4, 150 mM NaCl, 1% Nonidet P-40; IP with rabbit anti-EGFP/EYFP/ECFP and Dynabeads Protein G at 4°C overnight; western blot
[2] = target: ADP-ribosylation factor 6 (ARF6), endogenous in mouse midbrain (mouse (endogenous in midbrain)) (UniProt P62331); experiment: co-IP; mouse midbrain lysate (wildtype or Sig-1R KO) in 50 mM Tris pH 7.4, 150 mM NaCl, 0.1% lauryl maltose neopentyl glycol; IP with anti-ARF6 antibody and Dynabeads Protein G at 4°C overnight; blot for Sig-1R; also after in vivo cocaine (15 mg/kg i.p.; co-IP attenuated) with or without BD1063 (10 mg/kg s.c.)
[3] = target: ARF6 (T27N)-CFP, mimicking ARF6-GDP (UniProt P62330); experiment: co-IP; NG108 cells co-transfected with Halo-tagged Sig-1R constructs and ARF6-CFP constructs; lysis in 50 mM Tris pH 7.4, 150 mM NaCl, 1% Nonidet P-40; IP with rabbit anti-EGFP/EYFP/ECFP and Dynabeads Protein G at 4°C overnight; western blot
[4] = target: ARF6 (T27N)-CFP, mimicking ARF6-GDP (UniProt P62330); experiment: as above; remark: listed apart in the source

**Q.** Which binding [1] does the source give for “Halo-tagged sigma-1 receptor (Halo-Sig-1R), full-length with N-terminal Halo tag (from UniProt O55242-1 1-223)” here?
**A.** binds

**Q.** “sigma-1 receptor (Sig-1R), endogenous in mouse midbrain (from UniProt O55242-1 1-223)” was tested. Which binding [2] did it give?
**A.** binds

**Q.** For “Halo-Sig-1R (61-223) (from UniProt O55242-1 61-223) (domain or fragment)”, which binding [3] is on record?
**A.** binds

B1: Sig-1R (1-60)-Halo (domain or fragment, UniProt O55242-1 1-60)
chain: MPWAAGRRWAWITLILTIIAVLIQAAWLWLGTQNFVFSREEIAQLARQYAGLDHELAFSR
**Q.** B1 was tested. Which binding [4] did it give?
**A.** no binding
